This passage reports binding results from PMC5057372.

Sequences of proteins named here, by UniProt entry; tags and fusion partners are left off.
UniProt P42227: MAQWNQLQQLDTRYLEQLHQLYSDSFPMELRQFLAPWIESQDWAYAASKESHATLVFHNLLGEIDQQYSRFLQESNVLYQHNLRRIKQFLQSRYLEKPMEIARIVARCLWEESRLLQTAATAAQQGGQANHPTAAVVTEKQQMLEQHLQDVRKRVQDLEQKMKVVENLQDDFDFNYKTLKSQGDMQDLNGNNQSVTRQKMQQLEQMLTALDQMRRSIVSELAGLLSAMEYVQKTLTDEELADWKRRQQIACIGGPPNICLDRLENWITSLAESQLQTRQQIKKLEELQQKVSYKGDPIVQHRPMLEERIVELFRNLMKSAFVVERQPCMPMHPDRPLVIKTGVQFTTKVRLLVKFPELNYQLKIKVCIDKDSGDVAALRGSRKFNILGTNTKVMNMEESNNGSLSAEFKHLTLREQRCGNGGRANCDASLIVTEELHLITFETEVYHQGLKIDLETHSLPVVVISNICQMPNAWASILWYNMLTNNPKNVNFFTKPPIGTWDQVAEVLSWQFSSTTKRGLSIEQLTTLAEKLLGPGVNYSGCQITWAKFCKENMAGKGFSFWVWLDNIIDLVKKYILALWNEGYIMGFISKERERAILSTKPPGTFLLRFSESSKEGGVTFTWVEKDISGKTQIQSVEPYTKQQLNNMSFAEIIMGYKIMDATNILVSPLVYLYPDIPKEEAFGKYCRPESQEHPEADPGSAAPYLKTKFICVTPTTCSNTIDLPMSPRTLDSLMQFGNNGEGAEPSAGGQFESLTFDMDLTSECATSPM

Results are given in words; binding and its absence hold for the method and conditions named. In cells and extracts the contact can be indirect. Some entries that bind do so weakly or less than the wild type.

In the experiment the target is Signal transducer and activator of transcription 3 (STAT3) (mouse (endogenous in primary astrocytes of C57BL/6 mice)) (UniProt P42227). Kind of experiment: co-IP; nuclear protein extracts of primary astrocytes after OGD (vehicle, Sino 1 mM, Sino with scramble, DRD2 or CRYAB siRNA) precipitated with a STAT3 antibody on Protein A/G PLUS-Agarose; Western blot with STAT3, p-STAT3 and CRYAB antibodies. On the technique in general: A western blot detects proteins with antibodies after separation by electrophoresis.

B1: αB-crystallin (CRYAB) (protein, UniProt P23927 1-175)
chain: MDIAIHHPWIRRPFFPFHSPSRLFDQFFGEHLLESDLFSTATSLSPFYLRPPSFLRAPSWIDTGLSEMRLEKDRFSVNLDVKHFSPEELKVKVLGDVIEVHGKHEERQDEHGFISREFHRKYRIPADVDPLTITSSLSSDGVLTVNGPRKQVSGPERTIPITREEKPAVAAAPKK
Turning to B1, the binding result is recorded as “binds”.
